Test results taken from US20230211344.

Columns and labels:
[1] = system: IgE kappa (clone AbD18705_IgE); assay: binding assay; conditions: micro free-flow electrophoresis with single-molecule confocal counting; 40 nM IgE + 50 pM aptamer gave about 21.7 pM complex (20.5 pM also stated); 10 mM HEPES pH 7.4; purified recombinant protein; protein details: Bio-Rad, clone AbD18705_IgE; label: 5'-Atto488; single-stranded DNA; cited from earlier work
[2] = target: alpha-synuclein (fibrils) (UniProt P37840); assay: binding assay; conditions: purified recombinant protein, single-stranded DNA

Sequence	binding result [1]	binding result ([2]; CITED Tsukakoshi et al. 2012, approximate Kd for fibrillar form)	binding result ([2]; micro free-flow electrophoresis at 80 V with single-molecule counting, 10 nM aptamer, bound probe 18.7 +/- 2.3 pM, fibril binding sites 1.0-1.9 nM assuming literature Kd)
TGGGGCACGTTTATCCGTCCCTCCTAGTGGCGTGCCCC [IgE aptamer probe]	binds		
TTTTGCCTGTGGTGTTGGGGCGGGTGCG [alpha-synuclein aptamer probe]		binds more weakly	binds

For at least one entry, the source does not settle the construct or the ends of the probe. For part of these data: Weaker means in comparison with the reference protein, sequence or condition of that experiment.
